PubChem BioAssay AID504804 | Drosophila RNAi Screening Center – 2011
The deposit covers about 19,000 reagents; below is a random part of those that have a named target and a result. Over the whole deposit, 47 (0.25%) were called active. 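Signals are raw, not normalised; exact z-scores behind calls not deposited; actives needed confirmation, so some wells reaching 2 SD are inactive.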 Reagents against one gene are numbered here. No sequences are given here.

- Assay: 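Fly genes whose loss lessens doxorubicin-driven cell death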 (primary screen)
- System: Drosophila Kc cells
- Knock-down reagent: long dsRNA against Drosophila genes, 0.5 µg dsRNA per well
- Timing: 96 h (48 h knock-down, then 48 h drug)
- Challenge: doxorubicin 5 µg/ml for 48 h, added 48 h after dsRNA
- Detection: 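Luminescent ATP counts per replicate, not normalised, reflecting viable cells after 48 h dsRNA knock-down followed by 48 h of 5 µg/ml doxorubicin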
- Scale: raw ATP luminescence: higher = more viable cells, protection from doxorubicin
- Active means: 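z-score of 2 or more over plate mean in both duplicates, retained only when retests and separate dsRNAs confirm the protection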

For CG32461 (GeneID 318042), what does the deposit list?
raw ATP luminescence, replicate 1: 52617; raw ATP luminescence, replicate 2: 43257; activity call: inactive

What is on record for Dhit (GeneID 37037)?
raw ATP luminescence, replicate 1: 62820; raw ATP luminescence, replicate 2: 67423; activity call: inactive

What did the screen give for E2f1 (GeneID 42550)?
raw ATP luminescence, replicate 1: 32920; raw ATP luminescence, replicate 2: 26700; activity call: inactive

For CG14926 (GeneID 34567), what does the deposit list?
raw ATP luminescence, replicate 1: 43000; raw ATP luminescence, replicate 2: 50373; activity call: inactive

For CG3356 (GeneID 37876), what does the deposit list?
raw ATP luminescence, replicate 1: 72463; raw ATP luminescence, replicate 2: 69150; activity call: inactive

What is on record for CG6048 (GeneID 31528)?
raw ATP luminescence, replicate 1: 37880; raw ATP luminescence, replicate 2: 51280; activity call: inactive

What did the screen give for CG11029 (GeneID 33804)?
raw ATP luminescence, replicate 1: 37313; raw ATP luminescence, replicate 2: 35720; activity call: inactive

Which result is listed for l(2)k09848 (GeneID 35536)?
raw ATP luminescence, replicate 1: 61467; raw ATP luminescence, replicate 2: 65963; activity call: inactive

For CG14258 (GeneID 43260), what was measured?
raw ATP luminescence, replicate 1: 75600; raw ATP luminescence, replicate 2: 52570; activity call: inactive

Targets above whose target name starts with C or c:
CG32461 (GeneID 318042) → raw ATP luminescence, replicate 1 = 52617; raw ATP luminescence, replicate 2 = 43257; activity call = inactive
CG14926 (GeneID 34567) → raw ATP luminescence, replicate 1 = 43000; raw ATP luminescence, replicate 2 = 50373; activity call = inactive
CG3356 (GeneID 37876) → raw ATP luminescence, replicate 1 = 72463; raw ATP luminescence, replicate 2 = 69150; activity call = inactive
CG6048 (GeneID 31528) → raw ATP luminescence, replicate 1 = 37880; raw ATP luminescence, replicate 2 = 51280; activity call = inactive
CG11029 (GeneID 33804) → raw ATP luminescence, replicate 1 = 37313; raw ATP luminescence, replicate 2 = 35720; activity call = inactive
CG14258 (GeneID 43260) → raw ATP luminescence, replicate 1 = 75600; raw ATP luminescence, replicate 2 = 52570; activity call = inactive

The results go on:
How did the screen score DIP-alpha (GeneID 31322) #1?
raw ATP luminescence, replicate 1: 1.41e5; raw ATP luminescence, replicate 2: 1.94e5; activity call: inactive

With DIP-alpha (GeneID 31322) #2, what does the deposit list?
raw ATP luminescence, replicate 1: 14100; raw ATP luminescence, replicate 2: 22200; activity call: inactive

For PIP82 (GeneID 31791), what does the deposit list?
raw ATP luminescence, replicate 1: 43050; raw ATP luminescence, replicate 2: 42640; activity call: inactive

How did the screen score CCHa1 (GeneID 41711)?
raw ATP luminescence, replicate 1: 41880; raw ATP luminescence, replicate 2: 37740; activity call: inactive

For nbs (GeneID 44259), how do the results read?
raw ATP luminescence, replicate 1: 97627; raw ATP luminescence, replicate 2: 1.01e5; activity call: inactive

For Treh (GeneID 45368), what was measured?
raw ATP luminescence, replicate 1: 81383; raw ATP luminescence, replicate 2: 66847; activity call: inactive

Which result is listed for CG3764 (GeneID 39902)?
raw ATP luminescence, replicate 1: 19377; raw ATP luminescence, replicate 2: 18267; activity call: inactive

For Exd2 (GeneID 41374), what does the deposit list?
raw ATP luminescence, replicate 1: 59727; raw ATP luminescence, replicate 2: 51080; activity call: inactive

With DCAF12 (GeneID 41460), how do the results read?
raw ATP luminescence, replicate 1: 74887; raw ATP luminescence, replicate 2: 43507; activity call: inactive

With IKKbeta (GeneID 44432), what does the deposit list?
raw ATP luminescence, replicate 1: 39197; raw ATP luminescence, replicate 2: 48290; activity call: inactive

What is on record for CG7329 (GeneID 34457)?
raw ATP luminescence, replicate 1: 27073; raw ATP luminescence, replicate 2: 71760; activity call: inactive

For CG8814 (GeneID 33492), what does the deposit list?
raw ATP luminescence, replicate 1: 1.24e5; raw ATP luminescence, replicate 2: 85453; activity call: inactive

Which result is listed for CG15873 (GeneID 37898)?
raw ATP luminescence, replicate 1: 44350; raw ATP luminescence, replicate 2: 41073; activity call: inactive

For dpr10 (GeneID 39180) #1, how do the results read?
raw ATP luminescence, replicate 1: 1.61e5; raw ATP luminescence, replicate 2: 1.61e5; activity call: inactive

With dpr10 (GeneID 39180) #2, how do the results read?
raw ATP luminescence, replicate 1: 1.69e5; raw ATP luminescence, replicate 2: 1.62e5; activity call: inactive

What did the screen give for dpr10 (GeneID 39180) #3?
raw ATP luminescence, replicate 1: 66433; raw ATP luminescence, replicate 2: 58847; activity call: inactive

What did the screen give for dpr10 (GeneID 39180) #4?
raw ATP luminescence, replicate 1: 60733; raw ATP luminescence, replicate 2: 72923; activity call: inactive

How did the screen score CG11663 (GeneID 31036)?
raw ATP luminescence, replicate 1: 21100; raw ATP luminescence, replicate 2: 23230; activity call: inactive

For Vta1 (GeneID 38204), how do the results read?
raw ATP luminescence, replicate 1: 1.91e5; raw ATP luminescence, replicate 2: 2.02e5; activity call: inactive
